Measured data: PubChem BioAssay AID1159584 (Peter MacCallum Cancer Centre, 2016)
Here is a random part of about 18,000 reagents tested. Further read-outs or replicates are left out here. No sequences are given here. Not stated in the record: the amount of reagent, the time to read-out.

Test: 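Knock-downs that harm CDH1-null cells more than parental MCF10A cells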 (primary screen)
Cell system: human MCF10A breast epithelial cells, parental and CDH1-null
Knock-down reagent: siRNA against human genes
Measurement: 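ATP luminescence (CellTiter-Glo) viability per line relative to mean mock wells over all plates, and the ratio of CDH1-null to parental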
Scale: CDH1-null / parental viability ratio: higher = CDH1-null cells survive relatively better than parental

Depletion of USP18 gave: CDH1-null / parental viability ratio 1.24.
Depletion of ALKBH2 resulted in: CDH1-null / parental viability ratio 0.9.
With knock-down of TRIB2, the record shows CDH1-null / parental viability ratio 0.86.
For ADSL, the entry reads CDH1-null / parental viability ratio 1.19.
With knock-down of LMNA, the record shows CDH1-null / parental viability ratio 1.13.
For SUGP2, the values are CDH1-null / parental viability ratio 1.23.
Knock-down of MIPOL1 came out at: CDH1-null / parental viability ratio 1.29.
PXMP4 scored CDH1-null / parental viability ratio 0.8.
With knock-down of WDR49, the record shows CDH1-null / parental viability ratio 0.89.
For MDM2, the values are CDH1-null / parental viability ratio 0.99.
Against KLHL13, the entry reads CDH1-null / parental viability ratio 1.03.
Against CRB2, the entry reads CDH1-null / parental viability ratio 0.94.
RNF8 gave CDH1-null / parental viability ratio 1.02.
CSRP1 scored CDH1-null / parental viability ratio 1.14.
For KIF20A, the entry reads CDH1-null / parental viability ratio 0.88.
Knock-down of AFAP1L1 came out at: CDH1-null / parental viability ratio 0.86.
For ZNF786, the entry reads CDH1-null / parental viability ratio 1.17.
For PVR, the entry reads CDH1-null / parental viability ratio 1.3.
With knock-down of CCDC106 the results were CDH1-null / parental viability ratio 0.93.
H2BC11 gave CDH1-null / parental viability ratio 1.03.
With knock-down of MUCL1 the results were CDH1-null / parental viability ratio 1.08.
After knock-down of C1orf52, the record shows CDH1-null / parental viability ratio 0.98.
Depletion of SPZ1 resulted in: CDH1-null / parental viability ratio 0.86.
With knock-down of PGA4, the screen gave CDH1-null / parental viability ratio 0.95.

2 entries already listed, ordered by “CDH1-null / parental viability ratio”, lowest first.
AFAP1L1: CDH1-null / parental viability ratio = 0.86
ZNF786: CDH1-null / parental viability ratio = 1.17
